According to publication PMC8767726:
Results are given in words; binding and its absence hold for the method and conditions named. In cells and extracts the contact can be indirect. Some entries that bind do so weakly or less than the wild type.

Amino acid sequences for entries named in this document (tags omitted).
UniProt Q03135: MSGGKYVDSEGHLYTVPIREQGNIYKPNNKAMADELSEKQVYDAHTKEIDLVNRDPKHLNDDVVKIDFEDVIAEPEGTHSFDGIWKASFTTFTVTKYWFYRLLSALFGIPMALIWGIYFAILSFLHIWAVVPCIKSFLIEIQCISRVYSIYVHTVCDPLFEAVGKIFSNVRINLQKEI

Target: caveolin 1 (CAV1) (human (endogenous in primary CAFs from patients' PDAC tissue)) (UniProt Q03135)
Test: co-IP; CAF lysates in IP lysis buffer with protease inhibitors; indicated antibody or rabbit IgG control overnight at 4 °C, Dynabeads Protein A/G 3 h at 4 °C, western blot; CAFs with the indicated treatments (change of circFARP1 level)

binding: binds
B1: E3 ubiquitin-protein ligase zinc and ring finger 1 (ZNRF1) (enzyme, UniProt Q8ND25 1-227)
chain: MGGKQSTAARSRGPFPGVSTDDSAVPPPGGAPHFGHYRTGGGAMGLRSRSVSSVAGMGMDPSTAGGVPFGLYTPASRGTGDSERAPGGGGSASDSTYAHGNGYQETGGGHHRDGMLYLGSRASLADALPLHIAPRWFSSHSGFKCPICSKSVASDEMEMHFIMCLSKPRLSYNDDVLTKDAGECVICLEELLQGDTIARLPCLCIYHKSCIDSWFEVNRSCPEHPAD
